Data from patent publication CN111875706A.
No constants are given. Whether binding was seen depends on the method and setting. Some entries that bind do so weakly or less than the wild type. Values belong to the binder of their own block, whether it stands above or below them.

Protein sequences, listed by entry. Tags and fused reporters are not part of them. Lines headed by an entry give the natural chain unless they say otherwise; changes in a name come on top. Chains listed by the source or under a name are the forms on record and can include a tag or linker.
真核IgE蛋白 (eukaryotically expressed human IgE protein) (P01854, form named): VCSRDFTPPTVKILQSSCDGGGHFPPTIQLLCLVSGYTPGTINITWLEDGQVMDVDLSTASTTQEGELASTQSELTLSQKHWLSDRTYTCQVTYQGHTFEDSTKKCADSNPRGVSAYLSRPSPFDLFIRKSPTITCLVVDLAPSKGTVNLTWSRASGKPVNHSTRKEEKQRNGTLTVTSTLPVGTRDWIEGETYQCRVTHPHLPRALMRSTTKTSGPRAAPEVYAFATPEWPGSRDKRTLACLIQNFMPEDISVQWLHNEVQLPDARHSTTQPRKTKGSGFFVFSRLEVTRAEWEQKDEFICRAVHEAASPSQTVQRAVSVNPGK

Target: 真核IgE蛋白 (eukaryotically expressed human IgE protein) (human) (UniProt P01854)
Test: static adsorption: 1 ml agarose immunoadsorbent with 10 ml human plasma spiked with 1500 IU/ml IgE, 40 min; IgE kit before/after

- binding: binds
B1: 蛋白SD3 (单域抗体, SEQ ID NO.3) (VHH, not shown: small tags and cut ends)
VHH: DVQLQESGGGLVQSGGSLTLSCTASGTPLDYYTIGWFRQAPGKEREGVSSIGRLDTRVHYADSVKGRFTISRNNAENTVYLQMNSLKPEDTAIYYCAADRGYSSATPLALGRYIWWGQGTQVTVSS

- binding: binds
B2: 蛋白SD4 (单域抗体, SEQ ID NO.4) (VHH, not shown: small tags and cut ends)
VHH: DVQLQESGGGLVQPGGSLRLSCEASGFALDYHSIGWFRQAPGKEREGVSCITTKYGAMYPDSVEGRFTISRDNAENTVYLQMNSLKPEDTAVYYCAAMRLVTSLQSLCLNPARYDYWGQGTQVTVSS
